Results taken from patent US20220184177A1.
No constants are given. Whether binding was seen depends on the method and setting. Some binding calls cover weakened binding; strength is not graded here.

Sequences of proteins named here, by UniProt entry; tags and fusion partners are left off.
UniProt P05412: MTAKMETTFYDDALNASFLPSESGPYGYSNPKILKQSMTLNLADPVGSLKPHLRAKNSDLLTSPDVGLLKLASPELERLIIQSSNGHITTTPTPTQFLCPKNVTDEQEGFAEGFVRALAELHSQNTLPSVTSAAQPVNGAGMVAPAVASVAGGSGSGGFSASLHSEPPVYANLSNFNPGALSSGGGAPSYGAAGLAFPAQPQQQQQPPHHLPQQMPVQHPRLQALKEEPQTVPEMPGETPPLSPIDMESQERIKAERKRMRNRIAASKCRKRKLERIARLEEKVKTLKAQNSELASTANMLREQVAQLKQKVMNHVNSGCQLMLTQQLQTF
UniProt P03372: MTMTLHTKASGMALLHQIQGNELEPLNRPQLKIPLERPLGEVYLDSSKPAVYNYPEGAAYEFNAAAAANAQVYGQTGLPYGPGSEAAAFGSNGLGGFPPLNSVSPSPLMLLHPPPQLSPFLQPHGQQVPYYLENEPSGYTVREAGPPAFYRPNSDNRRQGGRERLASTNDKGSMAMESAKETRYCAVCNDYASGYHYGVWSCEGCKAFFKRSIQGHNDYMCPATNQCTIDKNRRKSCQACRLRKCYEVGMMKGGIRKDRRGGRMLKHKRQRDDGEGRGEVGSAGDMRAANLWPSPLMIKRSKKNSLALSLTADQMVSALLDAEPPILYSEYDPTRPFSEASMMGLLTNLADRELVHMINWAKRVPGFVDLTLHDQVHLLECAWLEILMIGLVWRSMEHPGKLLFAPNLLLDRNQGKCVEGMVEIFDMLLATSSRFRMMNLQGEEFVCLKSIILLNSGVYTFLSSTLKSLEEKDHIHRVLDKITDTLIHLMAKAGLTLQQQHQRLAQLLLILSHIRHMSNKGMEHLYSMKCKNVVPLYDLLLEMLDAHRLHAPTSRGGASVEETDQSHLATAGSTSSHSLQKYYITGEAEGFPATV

Assays:
[1] = molecular target: His-tagged recombinant c-Jun (UniProt P05412); test: BLI (refers to Example 1)
Estrogen Receptor α [2] = molecular target: Estrogen Receptor α (UniProt P03372); test: BLI binding curves on ERα
[3] = molecular target: His-tagged recombinant c-Jun (UniProt P05412); test: BLI
Estrogen Receptor α [4] = molecular target: Estrogen Receptor α (UniProt P03372); test: binding curves (FIG. 10A)
[5] = molecular target: His-tagged recombinant c-Jun (UniProt P05412); test: BLI (Octet), His-tagged c-Jun captured on anti-His tips, peptide in solution

Measured: binding

RLQLMARLAEGTGLQIPPAAQQALQMSGSLAFGAVAEFSFVIDLQ (single biotin on the N-terminus) [CAPER peptide HCC1.4 (amino acid residues 356-400)]
binds: all assays above

RLQLMARLAEGTGLQIPPAAQQALQMSGSLAFGAVADLQTRLSQQ (single biotin on the N-terminus) [CAPER peptide HCC1.3 (amino acid residues 356-400)]
binds: all assays above
